Laboratory results: publication PMC4347017
No constants are given. Whether binding was seen depends on the method and setting. Binding seen in cells or lysates may run through a third protein. Here binding means that the protein was enriched with, or labelled near, the bait; the list need not be complete.

Sequences of proteins named here, by UniProt entry; tags and fusion partners are left off.
UniProt Q8R4B8: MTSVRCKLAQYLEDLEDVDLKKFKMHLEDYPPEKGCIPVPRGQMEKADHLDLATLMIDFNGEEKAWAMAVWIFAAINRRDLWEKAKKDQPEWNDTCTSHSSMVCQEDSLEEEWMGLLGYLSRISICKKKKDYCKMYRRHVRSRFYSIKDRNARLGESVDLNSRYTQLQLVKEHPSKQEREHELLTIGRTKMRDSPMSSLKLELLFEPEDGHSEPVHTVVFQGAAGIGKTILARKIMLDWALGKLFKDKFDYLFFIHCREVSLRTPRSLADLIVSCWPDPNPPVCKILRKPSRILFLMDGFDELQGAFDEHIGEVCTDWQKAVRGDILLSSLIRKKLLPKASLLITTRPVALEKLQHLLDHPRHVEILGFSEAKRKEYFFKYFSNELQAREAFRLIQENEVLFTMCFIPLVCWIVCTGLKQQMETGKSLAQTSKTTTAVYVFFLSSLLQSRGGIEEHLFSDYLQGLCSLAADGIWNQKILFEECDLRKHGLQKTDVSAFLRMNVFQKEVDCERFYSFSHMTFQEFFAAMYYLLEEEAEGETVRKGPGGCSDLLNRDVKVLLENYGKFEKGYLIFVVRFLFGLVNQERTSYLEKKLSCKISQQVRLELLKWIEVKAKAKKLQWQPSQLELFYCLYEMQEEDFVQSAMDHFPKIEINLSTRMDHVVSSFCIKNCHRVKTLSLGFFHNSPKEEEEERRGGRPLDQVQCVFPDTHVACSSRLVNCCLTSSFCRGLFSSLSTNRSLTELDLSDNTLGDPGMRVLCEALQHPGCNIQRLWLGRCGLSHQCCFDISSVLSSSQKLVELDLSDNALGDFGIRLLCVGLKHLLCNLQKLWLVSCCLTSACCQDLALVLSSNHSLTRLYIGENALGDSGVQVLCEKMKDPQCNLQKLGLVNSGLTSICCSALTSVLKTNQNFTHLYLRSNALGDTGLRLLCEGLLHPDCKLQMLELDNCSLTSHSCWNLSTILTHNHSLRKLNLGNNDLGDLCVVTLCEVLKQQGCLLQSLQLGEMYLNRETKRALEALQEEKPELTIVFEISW

Molecular target: T1, Small heterodimer partner (SHP), endogenous in mouse bone marrow-derived macrophages (mouse (endogenous in BMDMs)) (UniProt Q62227)
T1 sequence: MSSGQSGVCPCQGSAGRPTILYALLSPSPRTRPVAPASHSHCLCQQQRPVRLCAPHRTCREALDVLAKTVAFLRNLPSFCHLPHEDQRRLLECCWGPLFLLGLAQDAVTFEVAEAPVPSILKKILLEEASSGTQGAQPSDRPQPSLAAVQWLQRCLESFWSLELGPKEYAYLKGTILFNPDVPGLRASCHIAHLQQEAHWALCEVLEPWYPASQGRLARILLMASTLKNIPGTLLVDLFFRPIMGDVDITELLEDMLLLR
Experiment: affinity purification with mass spectrometry; LPS-primed BMDMs stimulated with ATP 30 min, NP-40 lysate, immunoprecipitation with anti-SHP 18 h at 4 °C, silver-stained bands excised, ion-trap mass spectrometry

NOD-like receptor family, pyrin domain-containing 3 (NLRP3), endogenous in mouse bone marrow-derived macrophages (from UniProt Q8R4B8 1-1033)
binding: binds
